Experimental data published in the supplement of paper PMC10849652.
Some of the results follow.

Amino acid sequences for entries named in this document (tags omitted). A change or cut given only in a name is not applied to a line headed by its entry.
UniProt Q8N999, whole entry, looked up: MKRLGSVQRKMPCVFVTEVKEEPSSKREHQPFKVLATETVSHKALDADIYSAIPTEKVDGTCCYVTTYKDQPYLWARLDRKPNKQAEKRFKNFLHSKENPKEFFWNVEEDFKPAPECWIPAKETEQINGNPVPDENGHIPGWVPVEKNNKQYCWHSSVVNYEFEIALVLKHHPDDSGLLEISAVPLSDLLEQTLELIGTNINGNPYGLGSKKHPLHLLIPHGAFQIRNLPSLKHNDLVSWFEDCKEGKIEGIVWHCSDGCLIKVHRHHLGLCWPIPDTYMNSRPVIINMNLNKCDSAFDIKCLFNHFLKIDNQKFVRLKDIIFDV
UniProt P01024, whole entry, looked up: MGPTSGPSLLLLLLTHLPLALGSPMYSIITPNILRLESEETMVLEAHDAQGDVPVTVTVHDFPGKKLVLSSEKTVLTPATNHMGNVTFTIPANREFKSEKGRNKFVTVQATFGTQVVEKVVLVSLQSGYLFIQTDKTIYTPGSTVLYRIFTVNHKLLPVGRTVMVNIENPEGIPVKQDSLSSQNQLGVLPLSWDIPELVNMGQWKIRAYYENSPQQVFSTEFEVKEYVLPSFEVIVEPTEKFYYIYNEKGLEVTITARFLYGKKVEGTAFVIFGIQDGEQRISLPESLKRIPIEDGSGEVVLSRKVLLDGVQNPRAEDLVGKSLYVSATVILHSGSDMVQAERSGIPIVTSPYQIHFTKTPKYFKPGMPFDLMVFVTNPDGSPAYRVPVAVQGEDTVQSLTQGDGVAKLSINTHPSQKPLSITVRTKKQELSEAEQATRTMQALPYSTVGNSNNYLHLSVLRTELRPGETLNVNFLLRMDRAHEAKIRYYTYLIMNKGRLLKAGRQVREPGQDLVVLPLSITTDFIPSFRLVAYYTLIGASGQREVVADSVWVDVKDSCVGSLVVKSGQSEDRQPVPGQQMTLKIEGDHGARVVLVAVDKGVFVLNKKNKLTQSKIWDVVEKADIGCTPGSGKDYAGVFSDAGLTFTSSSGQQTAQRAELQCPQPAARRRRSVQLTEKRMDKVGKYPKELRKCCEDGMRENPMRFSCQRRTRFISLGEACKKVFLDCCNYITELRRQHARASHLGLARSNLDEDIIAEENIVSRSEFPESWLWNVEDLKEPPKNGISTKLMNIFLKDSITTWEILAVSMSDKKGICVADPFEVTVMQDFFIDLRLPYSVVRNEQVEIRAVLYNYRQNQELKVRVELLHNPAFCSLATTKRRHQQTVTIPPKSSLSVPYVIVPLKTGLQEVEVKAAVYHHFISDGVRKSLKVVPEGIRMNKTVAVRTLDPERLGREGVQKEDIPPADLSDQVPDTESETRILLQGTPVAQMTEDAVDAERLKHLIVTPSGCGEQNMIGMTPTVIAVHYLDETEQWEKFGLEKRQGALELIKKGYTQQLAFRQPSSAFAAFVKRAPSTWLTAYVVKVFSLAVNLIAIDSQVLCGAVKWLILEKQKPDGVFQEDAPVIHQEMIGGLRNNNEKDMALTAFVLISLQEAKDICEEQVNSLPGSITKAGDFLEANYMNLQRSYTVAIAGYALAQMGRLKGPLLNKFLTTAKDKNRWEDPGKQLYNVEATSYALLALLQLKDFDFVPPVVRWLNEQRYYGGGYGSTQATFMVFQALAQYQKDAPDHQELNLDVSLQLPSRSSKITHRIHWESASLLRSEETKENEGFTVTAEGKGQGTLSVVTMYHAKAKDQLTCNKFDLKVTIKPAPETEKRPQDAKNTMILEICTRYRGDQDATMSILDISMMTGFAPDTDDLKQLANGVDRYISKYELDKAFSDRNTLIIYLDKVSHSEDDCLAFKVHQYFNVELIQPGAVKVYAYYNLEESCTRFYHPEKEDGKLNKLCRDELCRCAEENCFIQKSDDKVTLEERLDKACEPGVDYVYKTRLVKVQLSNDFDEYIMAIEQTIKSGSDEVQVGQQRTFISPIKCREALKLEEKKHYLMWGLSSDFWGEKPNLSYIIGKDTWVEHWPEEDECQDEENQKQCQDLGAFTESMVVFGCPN
UniProt P04003: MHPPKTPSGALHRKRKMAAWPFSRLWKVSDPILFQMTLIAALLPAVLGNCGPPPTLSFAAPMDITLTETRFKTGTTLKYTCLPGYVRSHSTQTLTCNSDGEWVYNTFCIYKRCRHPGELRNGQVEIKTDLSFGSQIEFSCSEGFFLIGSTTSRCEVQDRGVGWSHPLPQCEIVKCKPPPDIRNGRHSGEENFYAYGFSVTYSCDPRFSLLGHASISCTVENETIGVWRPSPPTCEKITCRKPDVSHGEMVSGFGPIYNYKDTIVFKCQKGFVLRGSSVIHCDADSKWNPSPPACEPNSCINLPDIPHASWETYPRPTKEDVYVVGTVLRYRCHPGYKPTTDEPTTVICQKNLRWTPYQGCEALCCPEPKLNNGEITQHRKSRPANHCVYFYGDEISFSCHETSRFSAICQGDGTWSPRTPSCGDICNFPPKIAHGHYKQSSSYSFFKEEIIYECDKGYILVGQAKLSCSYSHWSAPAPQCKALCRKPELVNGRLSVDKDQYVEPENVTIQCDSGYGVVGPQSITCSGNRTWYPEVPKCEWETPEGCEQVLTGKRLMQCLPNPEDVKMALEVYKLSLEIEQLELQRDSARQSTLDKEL
UniProt O95873: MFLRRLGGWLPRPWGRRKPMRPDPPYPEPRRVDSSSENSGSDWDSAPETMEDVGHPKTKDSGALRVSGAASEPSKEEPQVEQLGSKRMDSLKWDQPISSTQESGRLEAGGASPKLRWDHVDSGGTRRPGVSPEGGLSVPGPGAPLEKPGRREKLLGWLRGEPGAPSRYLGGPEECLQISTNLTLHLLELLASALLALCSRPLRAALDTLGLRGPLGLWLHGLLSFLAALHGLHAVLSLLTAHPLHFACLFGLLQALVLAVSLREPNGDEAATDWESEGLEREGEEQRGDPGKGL
UniProt Q86VG3: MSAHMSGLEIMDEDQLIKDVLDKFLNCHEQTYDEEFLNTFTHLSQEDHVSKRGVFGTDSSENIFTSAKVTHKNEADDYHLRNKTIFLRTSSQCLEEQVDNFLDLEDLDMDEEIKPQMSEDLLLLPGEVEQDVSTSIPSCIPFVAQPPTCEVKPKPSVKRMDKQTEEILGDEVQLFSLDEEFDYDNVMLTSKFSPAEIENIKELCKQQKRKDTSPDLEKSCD
UniProt Q96L46: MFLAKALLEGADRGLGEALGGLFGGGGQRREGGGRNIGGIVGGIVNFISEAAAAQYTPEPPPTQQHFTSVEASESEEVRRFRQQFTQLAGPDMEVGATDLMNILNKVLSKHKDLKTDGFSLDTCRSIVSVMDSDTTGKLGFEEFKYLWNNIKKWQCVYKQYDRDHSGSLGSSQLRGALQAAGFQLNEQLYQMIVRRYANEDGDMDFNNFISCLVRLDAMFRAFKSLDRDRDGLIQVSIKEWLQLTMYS
UniProt Q0VDD7: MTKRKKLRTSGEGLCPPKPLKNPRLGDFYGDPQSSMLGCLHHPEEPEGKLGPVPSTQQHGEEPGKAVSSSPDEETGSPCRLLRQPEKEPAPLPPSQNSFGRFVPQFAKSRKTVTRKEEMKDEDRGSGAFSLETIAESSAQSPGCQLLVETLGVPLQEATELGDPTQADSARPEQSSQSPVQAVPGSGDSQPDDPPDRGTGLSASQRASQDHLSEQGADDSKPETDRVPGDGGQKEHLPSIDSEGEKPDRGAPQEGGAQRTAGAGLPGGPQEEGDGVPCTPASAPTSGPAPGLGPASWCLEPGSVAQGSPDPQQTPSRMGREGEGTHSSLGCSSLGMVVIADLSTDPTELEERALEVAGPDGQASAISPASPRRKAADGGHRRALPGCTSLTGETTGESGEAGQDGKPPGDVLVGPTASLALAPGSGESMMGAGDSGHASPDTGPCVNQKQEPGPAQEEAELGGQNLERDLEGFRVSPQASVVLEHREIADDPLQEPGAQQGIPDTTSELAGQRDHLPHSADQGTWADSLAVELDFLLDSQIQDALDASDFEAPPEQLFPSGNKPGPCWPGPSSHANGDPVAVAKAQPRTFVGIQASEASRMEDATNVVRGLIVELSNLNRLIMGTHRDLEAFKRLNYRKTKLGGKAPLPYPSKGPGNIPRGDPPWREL
UniProt Q9Y297: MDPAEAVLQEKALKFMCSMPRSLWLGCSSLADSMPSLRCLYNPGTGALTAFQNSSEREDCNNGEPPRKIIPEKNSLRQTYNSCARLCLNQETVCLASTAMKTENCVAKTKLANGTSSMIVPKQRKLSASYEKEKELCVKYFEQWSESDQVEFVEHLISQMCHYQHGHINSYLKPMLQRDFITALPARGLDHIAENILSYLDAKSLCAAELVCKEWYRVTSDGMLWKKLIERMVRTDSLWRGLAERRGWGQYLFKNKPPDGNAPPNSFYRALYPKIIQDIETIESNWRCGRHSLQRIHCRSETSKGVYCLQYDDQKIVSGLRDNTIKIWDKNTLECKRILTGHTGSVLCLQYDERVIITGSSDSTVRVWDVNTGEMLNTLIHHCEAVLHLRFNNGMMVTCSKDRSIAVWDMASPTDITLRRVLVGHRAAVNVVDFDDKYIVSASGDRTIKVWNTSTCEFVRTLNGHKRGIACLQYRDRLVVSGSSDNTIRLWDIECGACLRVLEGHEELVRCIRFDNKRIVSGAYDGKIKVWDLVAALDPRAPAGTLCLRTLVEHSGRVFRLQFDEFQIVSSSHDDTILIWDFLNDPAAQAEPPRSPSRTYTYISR
UniProt Q96F05: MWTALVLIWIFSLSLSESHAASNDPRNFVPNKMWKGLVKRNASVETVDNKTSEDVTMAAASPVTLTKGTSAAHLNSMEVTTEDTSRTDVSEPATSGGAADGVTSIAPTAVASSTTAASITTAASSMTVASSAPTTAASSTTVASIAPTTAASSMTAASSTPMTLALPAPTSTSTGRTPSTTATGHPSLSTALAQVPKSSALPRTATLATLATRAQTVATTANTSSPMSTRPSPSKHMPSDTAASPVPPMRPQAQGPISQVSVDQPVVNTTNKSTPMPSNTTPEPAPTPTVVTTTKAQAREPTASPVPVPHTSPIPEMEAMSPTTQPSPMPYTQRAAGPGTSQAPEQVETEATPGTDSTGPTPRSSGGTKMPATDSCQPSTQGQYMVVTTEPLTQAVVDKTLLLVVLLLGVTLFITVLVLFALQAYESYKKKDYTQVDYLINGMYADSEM
UniProt Q9Y2V0: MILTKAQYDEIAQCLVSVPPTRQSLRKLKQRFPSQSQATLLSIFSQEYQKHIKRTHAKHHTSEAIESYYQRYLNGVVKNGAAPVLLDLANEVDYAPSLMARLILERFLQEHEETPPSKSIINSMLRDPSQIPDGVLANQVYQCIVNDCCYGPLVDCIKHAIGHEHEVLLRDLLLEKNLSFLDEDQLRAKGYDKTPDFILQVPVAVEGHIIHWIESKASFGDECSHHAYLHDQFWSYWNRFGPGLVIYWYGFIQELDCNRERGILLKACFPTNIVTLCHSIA
UniProt Q9BXL7: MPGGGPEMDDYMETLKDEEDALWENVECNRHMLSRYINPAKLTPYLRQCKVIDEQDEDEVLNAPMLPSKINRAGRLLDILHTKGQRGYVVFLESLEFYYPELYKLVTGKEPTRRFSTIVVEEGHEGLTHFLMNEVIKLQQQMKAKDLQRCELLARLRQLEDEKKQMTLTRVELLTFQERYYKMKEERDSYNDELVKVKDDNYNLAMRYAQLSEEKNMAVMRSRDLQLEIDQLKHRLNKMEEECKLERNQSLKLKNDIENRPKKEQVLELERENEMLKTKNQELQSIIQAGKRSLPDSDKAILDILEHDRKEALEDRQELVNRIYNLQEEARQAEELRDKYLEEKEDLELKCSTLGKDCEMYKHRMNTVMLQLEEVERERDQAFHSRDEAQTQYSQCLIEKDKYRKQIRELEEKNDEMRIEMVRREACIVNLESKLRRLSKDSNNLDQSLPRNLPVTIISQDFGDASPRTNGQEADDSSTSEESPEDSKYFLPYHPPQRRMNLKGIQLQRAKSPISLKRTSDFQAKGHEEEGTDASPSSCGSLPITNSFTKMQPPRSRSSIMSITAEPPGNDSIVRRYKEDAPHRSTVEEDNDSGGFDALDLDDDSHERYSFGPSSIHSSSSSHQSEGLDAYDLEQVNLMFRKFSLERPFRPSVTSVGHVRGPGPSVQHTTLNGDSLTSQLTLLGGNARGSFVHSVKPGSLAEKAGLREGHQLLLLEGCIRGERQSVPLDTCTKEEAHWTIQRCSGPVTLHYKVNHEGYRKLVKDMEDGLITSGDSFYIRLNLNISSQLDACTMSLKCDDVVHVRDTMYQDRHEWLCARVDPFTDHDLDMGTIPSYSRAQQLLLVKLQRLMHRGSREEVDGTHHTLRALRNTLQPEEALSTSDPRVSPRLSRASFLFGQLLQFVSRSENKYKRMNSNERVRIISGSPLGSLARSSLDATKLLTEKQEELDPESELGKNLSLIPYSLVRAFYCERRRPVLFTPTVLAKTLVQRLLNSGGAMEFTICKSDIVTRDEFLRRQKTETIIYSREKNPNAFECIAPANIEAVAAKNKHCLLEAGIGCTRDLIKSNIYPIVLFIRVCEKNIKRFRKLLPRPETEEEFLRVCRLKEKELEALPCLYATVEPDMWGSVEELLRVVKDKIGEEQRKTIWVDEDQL

Legend:
Test in all cases: log2 fold change, soluble protein after heating vs DMSO (PISA); higher = thermal stabilisation; K562 cells, 10 uM, 30 min; active = over 0.2 and 3.5 SD of the protein, either way, in both replicates (recomputed)
[1] = compound: COC1=CC=C(C=C1)CN2C=CC3=C2C=C(C=C3)C(=O)NO
Procedure, shortened: (§1)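 K562 cells at 2×10^6 cells/mL were given 10 μM compound for 30 min. Aliquots then went through 3 min of heating across 48°C-58°C, were pooled, and were extracted in PBS with 0.5% NP-40 at 4°C, and the supernatant after 21,000xg for 90 min was quantified by TMTpro 16plex LC-MS/MS with channel sums equalised. Thermal stability relative to control samples, from duplicates, is given as log2 fold change.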

[2] = compound: CON(C)C(=O)N1N=C(c2cc(F)ccc2F)S[C@@]1(CCCN)c1ccccc1 [filanesib]
Procedure, shortened: as §1

[3] = compound: CO[C@H]1C[C@@H]2CC[C@@H](C)[C@@](O)(O2)C(=O)C(=O)N2CCCC[C@H]2C(=O)O[C@H]([C@H](C)C[C@@H]2CC[C@H](n3cnnn3)[C@H](OC)C2)CC(=O)[C@H](C)/C=C(\C)[C@@H](O)[C@@H](OC)C(=O)[C@H](C)C[C@H](C)/C=C/C=C/C=C/1C [zotarolimus]
Procedure, shortened: as §1

[4] = compound: COc1cc(C(=O)O)ccc1NC(=O)[C@@H]1N[C@@H](CC(C)(C)C)[C@](C#N)(c2ccc(Cl)cc2F)[C@H]1c1cccc(Cl)c1F [idasanutlin]
Procedure, shortened: as §1

[5] = compound: COc1cc(Nc2ncc3c(n2)-c2ccc(Cl)cc2C(c2c(F)cccc2OC)=NC3)ccc1C(=O)O [alisertib]
Procedure, shortened: as §1

[6] = compound: COc1cc2nc(-c3cc(F)ccc3O)nc(N[C@@H]3CNC[C@H]3C(C)(C)O)c2cc1OC
Procedure, shortened: as §1

[7] = compound: COc1cc2ncnc(Nc3ccc(F)c(Cl)c3)c2cc1OCCCN1CCOCC1 [gefitinib]
Procedure, shortened: as §1

[8] = compound: COc1cccc2cc(-c3nc([C@H]4CC[C@H](C(=O)O)CC4)n4ncnc(N)c34)[nH]c12
Procedure, shortened: as §1

[9] = compound: CS(=O)(=O)CCNCc1ccc(-c2ccc3ncnc(Nc4ccc(OCc5cccc(F)c5)c(Cl)c4)c3c2)o1 [lapatinib]
Procedure, shortened: as §1

[10] = compound: CS(=O)(=O)N1CCN(Cc2cc3nc(-c4cccc5[nH]ncc45)nc(N4CCOCC4)c3s2)CC1 [pictilisib]
Procedure, shortened: as §1

Target | log2 fold change [1] | log2 fold change [2] | log2 fold change [3] | log2 fold change [4] | log2 fold change [5] | log2 fold change [6] | log2 fold change [7] | log2 fold change [8] | log2 fold change [9] | log2 fold change [10]
C12orf29 (UniProt Q8N999) | inactive: -0.082 | inactive: 0.061 | inactive: -0.046 | inactive: 0 | inactive: -0.013 | inactive: 0.099 | inactive: -0.031 | inactive: 0.039 | inactive: -0.003 | inactive: -0.007
C8orf33 isoform 2 (UniProt Q9H7E9) | inactive: -0.45 | inactive: 0.622 | inactive: 0.083 | inactive: 0.481 | inactive: -0.207 | inactive: -0.034 | inactive: -0.095 | inactive: -0.387 | inactive: 0.26 | inactive: -0.087
BUD13 (UniProt Q9BRD0) | inactive: -0.234 | inactive: 0.313 | inactive: -0.039 | inactive: 0.3 | inactive: -0.184 | inactive: -0.142 | inactive: -0.09 | inactive: -0.007 | inactive: 0.114 | inactive: -0.037
BST2 (UniProt Q10589) | inactive: -0.064 | inactive: -0.05 | inactive: 0.041 | inactive: -0.044 | inactive: -0.059 | inactive: -0.028 | inactive: -0.022 | inactive: 0.007 | inactive: 0.038 | inactive: 0.036
CALR (UniProt P27797) | inactive: -0.023 | inactive: 0.027 | inactive: 0.008 | inactive: 0.051 | inactive: -0.072 | inactive: 0.006 | inactive: 0.003 | inactive: -0.001 | inactive: -0.009 | inactive: -0.04
C2CD5 isoform 4 (UniProt Q86YS7) | inactive: 0.043 | inactive: 0.145 | inactive: 0.019 | inactive: -0.083 | inactive: 0.045 | inactive: 0.157 | inactive: 0.037 | inactive: 0.048 | inactive: -0.004 | inactive: 0.119
C4A (UniProt P0C0L4) | inactive: 0.042 | inactive: 0.014 | active: -0.615 | inactive: 0.068 | inactive: -0.005 | inactive: 0.001 | inactive: -0.198 | inactive: 0.175 | inactive: -0.078 | inactive: -0.291
C3 (UniProt P01024) | inactive: -0.052 | inactive: 0.053 | inactive: -0.165 | inactive: 0.035 | inactive: -0.055 | inactive: -0.171 | inactive: -0.093 | inactive: 0.323 | inactive: -0.024 | inactive: -0.09
C4BPA (UniProt P04003) | inactive: 0.184 | inactive: 0.425 | inactive: 0.017 | inactive: -0.518 | inactive: -0.197 |  | inactive: 0.278 | inactive: 0.094 |  | inactive: 0.647
C6orf47 (UniProt O95873) | inactive: -0.04 | inactive: -0.044 | inactive: -0.034 | inactive: -0.017 | inactive: 0.008 | inactive: -0.018 | inactive: -0.058 | inactive: 0.097 | inactive: 0.002 | inactive: 0.017
C9orf40 (UniProt Q8IXQ3) | inactive: 0.014 | inactive: 0.071 | inactive: -0.05 | inactive: 0.103 | inactive: -0.024 | inactive: -0.008 | inactive: 0.023 | inactive: -0.007 | inactive: 0.053 | inactive: -0.085
C11orf68 (UniProt Q9H3H3) | inactive: -0.01 | inactive: -0.092 | inactive: -0.013 | inactive: -0.022 | inactive: -0.026 | inactive: -0.042 | inactive: 0.032 | inactive: 0.046 | inactive: 0.144 | inactive: 0.024
CA3 (UniProt P07451) |  | inactive: 0.014 |  |  |  |  |  |  |  | 
C11orf74 (UniProt Q86VG3) | inactive: -0.04 | inactive: 0.149 |  |  | inactive: -0.042 |  | inactive: 0.024 | inactive: 0.101 |  | inactive: -0.082
CAB39L (UniProt Q9H9S4) | inactive: -0.063 | inactive: -0.07 |  | inactive: -0.052 |  | inactive: 0.07 |  |  | inactive: 0.057 | inactive: 0.029
CAPNS2 (UniProt Q96L46) | inactive: -0.007 |  |  |  | inactive: 1.12 |  |  | inactive: -0.3 |  | 
CA13 (UniProt Q8N1Q1) | inactive: -0.01 | inactive: -0.011 | inactive: 0.039 | inactive: -0.134 | inactive: 0.149 |  | inactive: -0.085 | inactive: -0.056 |  | inactive: -0.019
C19orf57 (UniProt Q0VDD7) | inactive: -0.06 |  | inactive: -0.098 | inactive: -0.005 |  |  |  |  |  | inactive: -0.089

Target | log2 fold change [1] | log2 fold change [2] | log2 fold change [3] | log2 fold change [4] | log2 fold change [5] | log2 fold change [6] | log2 fold change [7] | log2 fold change [8] | log2 fold change [9] | log2 fold change [10]
C7 (UniProt P10643) | inactive: -0.042 | inactive: 0.286 | inactive: -0.276 | inactive: 0.182 |  | inactive: -0.202 | inactive: -0.006 |  | inactive: -0.021 | inactive: -0.057
BTRC (UniProt Q9Y297) | inactive: -0.1 | inactive: -0.064 |  | inactive: -0.659 | inactive: 0.131 | inactive: -0.25 | inactive: 0.083 | inactive: -0.051 | inactive: -0.063 | inactive: -0.102
CABLES2 (UniProt Q9BTV7) | inactive: 0.068 |  |  |  | inactive: -0.232 |  |  | inactive: 0.036 |  | 
C11orf24 (UniProt Q96F05) | inactive: 0.116 | inactive: 0.183 |  | inactive: 0.374 |  |  |  |  |  | 
CAP1 isoform 2 (UniProt Q01518) | inactive: 0.156 |  |  |  | inactive: -0.155 |  |  | inactive: -0.076 |  | 
C15orf41 (UniProt Q9Y2V0) | inactive: -0.057 | inactive: -0.021 | inactive: -0.096 | inactive: -0.023 |  | inactive: 0.011 |  |  | inactive: -0.018 | inactive: 0.047
CALD1 (UniProt Q05682) | inactive: -0.008 | inactive: 0.009 | inactive: -0.617 |  |  | inactive: -0.079 |  |  | inactive: 0.136 | inactive: 0.104
C1orf43 (UniProt Q9BWL3) |  | inactive: -0.005 |  |  |  |  |  |  |  | 
BTN2A1 (UniProt Q7KYR7) | inactive: 0.037 |  | inactive: 0.01 |  |  | inactive: 0.116 | inactive: -0.005 |  | inactive: 0.111 | inactive: -0.032
CARD9 (UniProt Q9H257) | inactive: -0.062 |  |  | inactive: 0.169 |  |  |  |  |  | 
C19orf54 (UniProt Q5BKX5) | inactive: -0.025 | inactive: -0.278 | inactive: 0.024 | inactive: -0.094 |  | inactive: 0.123 |  |  | inactive: -0.125 | inactive: 0.053
CALCOCO1 (UniProt Q9P1Z2) | inactive: 0.004 |  | inactive: 0 |  | inactive: -0.055 | inactive: 0.027 | inactive: -0.225 | inactive: -0.017 | inactive: 0.064 | inactive: -0.101
C7orf26 (UniProt Q96N11) | inactive: -0.003 | inactive: -0.018 |  |  |  |  | inactive: -0.063 |  |  | 
CARD11 (UniProt Q9BXL7) | inactive: 0.035 | inactive: 0.202 | inactive: -0.073 | inactive: 0.089 |  | inactive: 0.051 |  |  | inactive: 0.084 | 
CARD19 isoform 2 (UniProt Q96LW7) | inactive: -0.026 |  | inactive: 0.003 | inactive: -0.037 | inactive: 0.063 |  |  | inactive: -0.077 |  | inactive: -0.067
C1D (UniProt Q13901) | inactive: -0.171 | inactive: -0.041 |  | inactive: 0.12 | inactive: -0.138 | inactive: -0.101 | inactive: 0.043 | inactive: -0.027 | inactive: 0.006 | inactive: 0.012
C6orf136 isoform 4 (UniProt Q5SQH8) | inactive: 0.048 | inactive: -0.292 |  | inactive: -0.03 | inactive: -0.38 |  | inactive: 0.01 | inactive: -0.037 |  | 

Part of the list above, limited to log2 fold change [10], log2 fold change [1] and log2 fold change [7]:

| Target | log2 fold change [10] | log2 fold change [1] | log2 fold change [7] |
| --- | --- | --- | --- |
| C11orf24 (UniProt Q96F05) |  | inactive: 0.116 |  |
| CAP1 isoform 2 (UniProt Q01518) |  | inactive: 0.156 |  |
| C15orf41 (UniProt Q9Y2V0) | inactive: 0.047 | inactive: -0.057 |  |
